The list shows a part of the results.

In article PMC7819943, “Rice protein-binding microarrays: a tool to detect cis-acting elements near promoter regions in rice” one finds binding signal data, which are given here for 42 sequences.

The target in this test is T1, OsSMF1 (Oryza sativa, UniProt Q6ZLB0 1-436).
T1 sequence: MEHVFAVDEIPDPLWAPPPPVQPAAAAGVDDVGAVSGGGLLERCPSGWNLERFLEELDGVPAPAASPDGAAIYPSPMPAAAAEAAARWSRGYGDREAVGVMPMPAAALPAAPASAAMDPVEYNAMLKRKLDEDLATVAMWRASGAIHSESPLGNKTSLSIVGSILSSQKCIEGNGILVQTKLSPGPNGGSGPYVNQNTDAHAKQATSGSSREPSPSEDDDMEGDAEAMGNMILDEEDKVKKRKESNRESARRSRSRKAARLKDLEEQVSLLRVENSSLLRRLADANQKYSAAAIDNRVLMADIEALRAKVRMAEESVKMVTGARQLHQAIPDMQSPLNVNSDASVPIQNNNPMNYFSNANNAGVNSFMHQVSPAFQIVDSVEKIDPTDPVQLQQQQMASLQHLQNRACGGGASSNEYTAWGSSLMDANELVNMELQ
Description: protein-binding microarray (RPBM); PBS, 2% BSA, 51.3 ng/ul salmon testes DNA, 50 uM zinc acetate, 200 nM TF, 25 C, 1 h; high values mean tight binding. To be noted: protein: recombinant; tags: N-terminal polyhistidine and DsRed monomer fusion (pET32a); chain copies: 2; label: CyDye5-dUTP incorporated in the synthesized complementary strand; 3' TTTTT single-stranded linker to array surface; dsDNA, one strand shown. The gist of the method:
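Polyhistidine-tagged DsRed fusions of transcription factors, joined at the N-terminus, were expressed in E. coli BL21-CodonPlus and isolated on Ni–NTA. They were incubated at 200 nM for 1 h at 25 °C on a custom Agilent array, double-stranded and BSA-blocked, in PBS with 2% BSA, salmon testes DNA and 50 µM zinc acetate. The binding signal is per-feature fluorescence intensity (arbitrary units) read on an Axon 4000B scanner after washing.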
On to “GGGGTGAGAAGAGTGGATGAAGATGGTTATCGGCGTGACTCGGAGTCACCTAGTGCAG”, for which the binding signal is 4800 fluorescence intensity (a.u.). With “GCCTACAAATGATGTGTTCTGTGTACCGACGTTTTGCCAACGGAGTCACCTAGTGCAG”, the binding signal is 5200 fluorescence intensity (a.u.). For the sequence “AAGTGATCTTATTCCTTCGGCGCTCGTTTGCAGGTTTCCTCGGAGTCACCTAGTGCAG”, the binding signal was 30600 fluorescence intensity (a.u.). In the case of “TTTATTGATAATAATAATCCAGATTTAATTTAATATTTTACGGAGTCACCTAGTGCAG”, the binding signal was 3760 fluorescence intensity (a.u.). On to “GCCGCCACCACTTAGCCTCGCCGCCAGCTGCCTCCCCGCTCGGAGTCACCTAGTGCAG”, for which the binding signal is 3170 fluorescence intensity (a.u.). Then “CTAGCCGTGTCCGCCTCTGCCACGCCACCACGACACGAGTCGGAGTCACCTAGTGCAG”, with 9600 fluorescence intensity (a.u.); and “CACACCCGCGCGTGCCACGCACGTGCGCCCGCGCCGCCGTCGGAGTCACCTAGTGCAG”, with 8840 fluorescence intensity (a.u.).

On to “AAGCGGGAGGTGGTGGAGGGGAGGTCGGCCGCCGTGCCCTCGGAGTCACCTAGTGCAG”, for which the binding signal was 3400 fluorescence intensity (a.u.). The result for “CAACTCGTACAGTACGTAGTATTAGGCCTATCCACCTATGCGGAGTCACCTAGTGCAG” reads 3350 fluorescence intensity (a.u.).

Regarding “TTGGCAAGCGCGCGTCACCTACTCAGCAGCCTGAGCCGCCCGGAGTCACCTAGTGCAG”, the binding signal was 5370 fluorescence intensity (a.u.). “CATGCCCTCGTCTCTCTATCCTACGTGGCGGTGCTGATGGCGGAGTCACCTAGTGCAG”: the binding signal is 23100 fluorescence intensity (a.u.). As to “TGTGCTCGCCCGGGACGCGTGCCGCGGGACGTCACGCACGCGGAGTCACCTAGTGCAG”, the binding signal is 3240 fluorescence intensity (a.u.).

On to “CGCCGCCCAGGGCGCAGCGGACGATGCTGGTGGTGGCGGGCGGAGTCACCTAGTGCAG”, for which the binding signal was 3650 fluorescence intensity (a.u.).

Regarding “GAGCCACGGTGGAAGGGTATAATCGTAATTTCGCGTATGGCGGAGTCACCTAGTGCAG”, the binding signal is 3370 fluorescence intensity (a.u.). The result for “GCACTTTCTCATAATGAACTATAGAGACGTGGAGTTGGGTCGGAGTCACCTAGTGCAG” reads 3910 fluorescence intensity (a.u.). The result for “GTATTCGAGCTATCCATATTCATTTTCATATCTGGTAAAACGGAGTCACCTAGTGCAG” reads 19000 fluorescence intensity (a.u.); that for “TACAGCGTCCTGTTTGTTTGTGTTGGGGCGTGGCAGTGTCCGGAGTCACCTAGTGCAG”, 4690 fluorescence intensity (a.u.); that for “AACCGCTTTTGTCTTCTCCAGCTCAGCTCGTCTTCTCCGCCGGAGTCACCTAGTGCAG”, 7370 fluorescence intensity (a.u.). Take “CGAGTTTCTCACATCAGGTCTGTCATTTGCCGTGGTATGCCGGAGTCACCTAGTGCAG”: the binding signal is 3460 fluorescence intensity (a.u.).

Turning to “AAATACACTAAACGCGACCAAAACGTGTCGATGTCTCGATCGGAGTCACCTAGTGCAG”, the binding signal is 4220 fluorescence intensity (a.u.). Then “GGGGCGGCCCGGCCCGTGTCCACGTAAGCAAACGCACGCTCGGAGTCACCTAGTGCAG”, with 24500 fluorescence intensity (a.u.); and “CGGAGACCTGCGCGCTCGACCTCATCGACGCCACGTACGACGGAGTCACCTAGTGCAG”, with 8340 fluorescence intensity (a.u.). For the sequence “GTCTGGAGAGCCAGAGGAGAGGAGTAGCGGACGCGGTGCCCGGAGTCACCTAGTGCAG”, the binding signal was 26700 fluorescence intensity (a.u.). The result for “CCAGCTCCACGTTGGATTAGATCTGGGTTGAAAATCTCGTCGGAGTCACCTAGTGCAG” reads 5270 fluorescence intensity (a.u.); that for “TTGTGATGTATCATACCATGCATTTCAAATATCAGTTCAACGGAGTCACCTAGTGCAG”, 3710 fluorescence intensity (a.u.). The result for “TCATCTCTCGGCTCTAGGTCATTAGCTAGCTAATGAACTCCGGAGTCACCTAGTGCAG” reads 3540 fluorescence intensity (a.u.); that for “TCGGCTCCTTCCCCGTCGTCGTGGGCTCGTCGGTGGACATCGGAGTCACCTAGTGCAG”, 3450 fluorescence intensity (a.u.); that for “TACTAATTGTGTCATCATTCGTATTTACTCCCTCCGTTTCCGGAGTCACCTAGTGCAG”, 6280 fluorescence intensity (a.u.). As for “TCTTGCTAATTGGTATGCCACATACGACAAAACCCCTCTCCGGAGTCACCTAGTGCAG”, the binding signal is 5230 fluorescence intensity (a.u.).

Take “CAAGACGAAGCGAATTCGCATCAAAACTGGCCGATAATTACGGAGTCACCTAGTGCAG”: the binding signal is 26000 fluorescence intensity (a.u.). Then “CCCAGTCGTTGTAGTTGGTCTTGGTCAGCAGCGGGTAGTTCGGAGTCACCTAGTGCAG”, with 5220 fluorescence intensity (a.u.); and “TGTCGGCGCAGATCAGAAGGATCTGACGCGTTTCGGTTTCCGGAGTCACCTAGTGCAG”, with 3520 fluorescence intensity (a.u.). The result for “TTAATAAAATAAACCAACCGATGTGTCATATCACGTACAACGGAGTCACCTAGTGCAG” reads 5130 fluorescence intensity (a.u.). Regarding “TAAAAGGAATGCGAACACGTGTGTTCGTGTACGTGGGGTGCGGAGTCACCTAGTGCAG”, the binding signal is 9210 fluorescence intensity (a.u.). Turning to “GACTTGTCCGGCGGTGTACCTCAACACGTGGGCAGGTGTCCGGAGTCACCTAGTGCAG”, the binding signal was 7320 fluorescence intensity (a.u.). The result for “TCGCCATGTCCGAGCTCCGCGTGTCGAGAGCACGAGCCACCGGAGTCACCTAGTGCAG” reads 4110 fluorescence intensity (a.u.); that for “GCTGTTCGCCACGTTCGCAGACTGGGCGGGACACGTGCCTCGGAGTCACCTAGTGCAG”, 11500 fluorescence intensity (a.u.). As for “CACCGCTTTTCGGACACGTAGGTCTGCGTGCGAAATATCCCGGAGTCACCTAGTGCAG”, the binding signal was 3470 fluorescence intensity (a.u.). “ACTGCCATGGTTGCGGAGCAGGATGGTGACGTGGATCCCACGGAGTCACCTAGTGCAG”: the binding signal was 17700 fluorescence intensity (a.u.). Then “GGCACTTACGTAAAGATGAGGGATAAAATGTCGACTTATTCGGAGTCACCTAGTGCAG”, with 3640 fluorescence intensity (a.u.); and “TTTCAATATGTTTATTTGTATCGTTATATGGTATAGGATCCGGAGTCACCTAGTGCAG”, with 13800 fluorescence intensity (a.u.). Take “AAGTCTGTCTTTACATACCTACATACGTGTATTTGTATGTCGGAGTCACCTAGTGCAG”: the binding signal is 3390 fluorescence intensity (a.u.).
